According to article PMC4820699:
No constants are given. Whether binding was seen depends on the method and setting. Binding seen in cells or lysates may run through a third protein. A yes stands for co-enrichment or nearness to the bait. Other partners may have been found.

By UniProt entry, the sequences of proteins in these tests, tags left out.
UniProt B5Z6X0: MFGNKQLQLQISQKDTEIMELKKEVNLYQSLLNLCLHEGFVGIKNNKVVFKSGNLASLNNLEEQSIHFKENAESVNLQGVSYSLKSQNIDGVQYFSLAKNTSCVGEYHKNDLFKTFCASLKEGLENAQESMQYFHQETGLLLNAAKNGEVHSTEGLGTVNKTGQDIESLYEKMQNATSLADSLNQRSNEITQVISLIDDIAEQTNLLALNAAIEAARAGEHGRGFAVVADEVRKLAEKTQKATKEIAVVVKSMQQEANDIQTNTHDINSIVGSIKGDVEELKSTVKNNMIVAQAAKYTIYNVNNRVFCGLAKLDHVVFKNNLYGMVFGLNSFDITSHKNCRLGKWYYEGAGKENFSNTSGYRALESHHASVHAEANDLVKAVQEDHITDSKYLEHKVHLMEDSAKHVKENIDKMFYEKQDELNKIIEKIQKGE

B1: aconitate hydratase AcnB (enzyme, UniProt P56418 1-852)
chain: MKDFLEDYKKSVSERGSEGIPPLPLNAKQVQAVVEILTKDPTNAAFAKELLIHRVSPGVDEGAKVKAEFLAKLSQKKLECVHISALEATTLLGTMLGGYNVEPLIMGLESQDKNIAKESAKALKTTLLVYGSFDKIAAMSKTNALAKEVLESWANAEWFLNKEPLNECIEACVFKIDGETNTDDLSPASDAFTRSDIPLHAKAMLKNRIENYEQRIKAIKTKGVPVAYVGDVVGTGSSRKSATNSIMWHFGKDIPFVPNKRSGGIVIGGVIAPIFFATCEDSGALPIVADVKDLKEGDLIKIYPYKGEITLNDKVVSTFKLEPETLLDEVRASGRIPLIIGRGLTNKARKFLGLGESEAFKKPSAPKSDAKGYTLAQKIVGHACGVKGILPGTYCEPKVTTVGSQDTTGAMTRDEVKELASLKFDAPFVLQSFCHTAAYPKPSDVSLHATLPGFITQRGGVALHPGDGVIHTWLNRMGLPDTLGTGGDSHTRFPLGISFPAGSGLVAFAAVTGTMPLNMPESVLVRFKGEMNPGITLRDLVNAIPYYAIKKGLLTVEKKGKINVFNGRILEIEGLPDIKMEQAFELSDASAERSAAACVVRLNKEPMIEYLKSNIKLIDEMIASGYEDKETLKKRRDAMQAWVDNPVLLEPDSNAQYAAVIEIDVAEITEPILACPNDPDDVATLSEVLADTTGKRPHAIDEVFIGSCMTNIGHFRAFGEIVKNAPPSQARLWVVPPSKMDEQELINEGYYAIFGAAGARTEVPGCSLCMGNQARVRDNAVVFSTSTRNFDNRMGRGAKVYLGSAELGAACALLGRIPTKEEYMNLVSEKLESQKDKIYRYMNFNLMENFRL
B2: isoleucyl-tRNA synthetase IleS (enzyme, UniProt P56456 1-920)
chain: MEEYKDTLNLNTTTFSMKGNLSVNEPKTYAKWQEQQAFKRMQARKDNHGDFTLHDGPPYANGHLHLGHALNKILKDIVVKREYFKGKKIYYTPGWDCHGLPIEQQILERLEKEKTSLENPTLFREKCRDHAKKFLEIQKNEFLQLGVLGDFEDPYKTMDFKFEASIYRALVEVAKKGLLKERHKPIYWSYACESALAEAEVEYKMKKSPSIFVAFGLKKESLEKLKVKKASLVIWTTTPWTLYANVAIALKKDAVYALTQKGYLVAKALHEKLAALGVVDNEITHEFNSNDLEYLVATNPLNQRDSLVALGEHVGLEDGTGAVHTAPGHGEEDYYLGLRYNLEVLMSVDEKGCYDEGIIHNQLLDESYLGEHVFKAQKRIIEQLGDSLLLEQEIEHSYPHCWRTHKPVIYRATTQWFILMDEPFIQNDGSQKTLREVALDAIEKVEFVPSSGKNRLKTMIENRPDWCLSRQRKWGVPLAFFIDKRTNKPCFESEVLEHVANLFEKKGCDVWWEYSVKDLLPPSYQEDAKHYEKIMHILDVWFDSGSTFKAVLEDYHGEKGQSPSDVILEGSDQHRGWFQSSLLIGCVLNNQAPFKKVITHGFIVDEKGEKMSKSKGNVVSLDKLLKTHGSDVVRLWVAFNDYQNDLRVSQTFFTQTEQHYKKFRNTLKFLLANFSDMDLKNLERPHNFSPLDHFMLETLETISAGVNSAFEEHDFVKGLNILMAFVTNELSGIYLDACKDSLYCDSKNNEKRQAIQMVLLATASKLCYFLAPILTHTIEEVLEHSQALRIFLQAKDVFDLKDISVSEKLHLKEFKKPENFEAVLALRSAFNEELDRLKKEGVIKNSLECAIEVKEKALDENLVEELLMVSFVGIAKEKLSETPAFTLFKAPFYKCPRCWRFKSELENTPCKRCEQVLKER

Molecular target: histidine-tagged TlpD (TlpD-Hisx6) (H. pylori) (UniProt B5Z6X0)
Test: affinity purification with mass spectrometry; TlpD-Hisx6 pulled down on Talon (Cobalt2+-coupled) beads from cleared lysates of plate-grown H. pylori N6 tlpD (TlpD-Hisx6); bands >82 kDa seen only against the tlpD mutant control were cut from Coomassie-stained 12% SDS gels and analysed by MS/MS; two independent experiments

Binder	binding
B1	binds
B2	binds
